Laboratory results as given in US8633166B2, “Methicillin-resistant Staphylococcus aureus active metabolites” (priority 2009, dated 2014).
Some of these results come from one statement about several compounds together.

Assays:
Staphylococcus aureus = assay: In vitro MIC, broth microdilution (CLSI); assay type: cell-based; conditions: inactive at the highest concentration considered
Method: (§1) All test articles were dissolved in DMSO. Stock solutions were prepared at 40-fold the highest concentration in the test plate. The final concentration of DMSO in the test system was 2.5%.
(§2) The medium employed for the MIC assay was Mueller Hinton II Broth (MHB II-Becton Dickinson, #212322, Lot #9044411) for most of the organisms. MHB II was supplemented with 2% lysed horse blood (Cleveland Scientific Lot #22299-1) to accommodate the growth of Streptococcus pneumoniae, Streptococcus pyogenes and Streptococcus agalactiae. The media were prepared at 102.5% the normal weight to offset the dilution created by the addition of 5 μL drug solution to each well of the microdilution panels. […]
(§3) Plates were stacked 3 high, covered with a lid on the top plate, placed in plastic bags, and incubated at 35° C. for approximately 18 hours for most of the isolates. The Streptococcus plates were read after 20 hours of incubation. […] The MIC was read and recorded as the lowest concentration of drug that inhibited visible growth of the organism.

[1] = tested on: Staphylococcus epidermidis; assay: In vitro MIC, broth microdilution (CLSI); assay type: cell-based
Method: as §1, §2, §3

With C[C@@H]1O[C@@H](Oc2c(-c3ccc(O)cc3)oc3cc(O)cc(O)c3c2=O)[C@H](OC(=O)/C=C/c2ccc(O)cc2)[C@H](OC(=O)/C=C/c2ccc(O)cc2)[C@H]1O [Compound 1, kaempferol 3-O-α-L-(2″,3″-di-E-p-coumaroyl)rhamnoside] the “MIC against S. aureus” value (Staphylococcus aureus) was greater than 8 µg/mL and the “MIC range against some strains of S. epidermidis” value [1] was 4 to 8 µg/mL.
